The target of the assay is protein jagged‐1 (Jagged1) (human (endogenous in HUVEC)) (UniProt P78504). The assay is described as follows: co-IP; Jag1 precipitated with antibody 28H8 from HUVEC lysates (50 mM Tris pH 7.5, 150 mM NaCl, 1% Triton X-100, 0.1% SDS; overnight 4 °C; magnetic beads; washes with 250 mM NaCl, 0.1% NP-40); cells static or exposed to flow (0.8 Pa FSS, orbital shaker); Western blot for VEGFR2 and Src.

Chains of the proteins cited; added tags and fusions are not shown. Residues count along the entry.
UniProt P78504, residues 34-1218: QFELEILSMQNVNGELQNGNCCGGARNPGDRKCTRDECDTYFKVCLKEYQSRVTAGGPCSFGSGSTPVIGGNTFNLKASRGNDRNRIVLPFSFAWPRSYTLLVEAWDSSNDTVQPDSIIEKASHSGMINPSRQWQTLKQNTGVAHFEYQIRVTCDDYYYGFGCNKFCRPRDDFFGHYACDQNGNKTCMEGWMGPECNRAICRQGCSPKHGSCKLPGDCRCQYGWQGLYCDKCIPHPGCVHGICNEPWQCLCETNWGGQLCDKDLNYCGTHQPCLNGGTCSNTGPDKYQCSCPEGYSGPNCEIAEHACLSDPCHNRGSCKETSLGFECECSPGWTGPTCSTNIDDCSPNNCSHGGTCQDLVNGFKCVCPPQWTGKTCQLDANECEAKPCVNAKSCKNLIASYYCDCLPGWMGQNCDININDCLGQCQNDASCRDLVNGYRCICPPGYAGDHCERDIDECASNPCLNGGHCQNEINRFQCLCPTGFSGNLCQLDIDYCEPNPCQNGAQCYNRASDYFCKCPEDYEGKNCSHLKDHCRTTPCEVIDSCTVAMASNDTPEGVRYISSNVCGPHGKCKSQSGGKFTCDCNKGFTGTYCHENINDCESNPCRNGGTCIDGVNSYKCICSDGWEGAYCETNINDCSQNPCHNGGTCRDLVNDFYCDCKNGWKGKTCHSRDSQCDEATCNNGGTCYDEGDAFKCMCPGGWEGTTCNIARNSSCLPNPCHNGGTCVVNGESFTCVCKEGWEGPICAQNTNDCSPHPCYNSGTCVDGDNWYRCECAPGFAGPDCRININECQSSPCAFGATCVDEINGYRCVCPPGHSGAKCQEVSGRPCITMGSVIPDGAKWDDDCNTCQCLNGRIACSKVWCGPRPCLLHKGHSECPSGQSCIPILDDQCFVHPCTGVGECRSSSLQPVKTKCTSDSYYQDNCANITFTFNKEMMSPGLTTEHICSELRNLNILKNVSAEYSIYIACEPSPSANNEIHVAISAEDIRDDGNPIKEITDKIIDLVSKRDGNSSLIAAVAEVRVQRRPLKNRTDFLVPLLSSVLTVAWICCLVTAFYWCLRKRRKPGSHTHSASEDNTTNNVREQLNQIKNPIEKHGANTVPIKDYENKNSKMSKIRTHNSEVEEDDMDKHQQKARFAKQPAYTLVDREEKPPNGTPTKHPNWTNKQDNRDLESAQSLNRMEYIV
UniProt P35968, residues 20-1356: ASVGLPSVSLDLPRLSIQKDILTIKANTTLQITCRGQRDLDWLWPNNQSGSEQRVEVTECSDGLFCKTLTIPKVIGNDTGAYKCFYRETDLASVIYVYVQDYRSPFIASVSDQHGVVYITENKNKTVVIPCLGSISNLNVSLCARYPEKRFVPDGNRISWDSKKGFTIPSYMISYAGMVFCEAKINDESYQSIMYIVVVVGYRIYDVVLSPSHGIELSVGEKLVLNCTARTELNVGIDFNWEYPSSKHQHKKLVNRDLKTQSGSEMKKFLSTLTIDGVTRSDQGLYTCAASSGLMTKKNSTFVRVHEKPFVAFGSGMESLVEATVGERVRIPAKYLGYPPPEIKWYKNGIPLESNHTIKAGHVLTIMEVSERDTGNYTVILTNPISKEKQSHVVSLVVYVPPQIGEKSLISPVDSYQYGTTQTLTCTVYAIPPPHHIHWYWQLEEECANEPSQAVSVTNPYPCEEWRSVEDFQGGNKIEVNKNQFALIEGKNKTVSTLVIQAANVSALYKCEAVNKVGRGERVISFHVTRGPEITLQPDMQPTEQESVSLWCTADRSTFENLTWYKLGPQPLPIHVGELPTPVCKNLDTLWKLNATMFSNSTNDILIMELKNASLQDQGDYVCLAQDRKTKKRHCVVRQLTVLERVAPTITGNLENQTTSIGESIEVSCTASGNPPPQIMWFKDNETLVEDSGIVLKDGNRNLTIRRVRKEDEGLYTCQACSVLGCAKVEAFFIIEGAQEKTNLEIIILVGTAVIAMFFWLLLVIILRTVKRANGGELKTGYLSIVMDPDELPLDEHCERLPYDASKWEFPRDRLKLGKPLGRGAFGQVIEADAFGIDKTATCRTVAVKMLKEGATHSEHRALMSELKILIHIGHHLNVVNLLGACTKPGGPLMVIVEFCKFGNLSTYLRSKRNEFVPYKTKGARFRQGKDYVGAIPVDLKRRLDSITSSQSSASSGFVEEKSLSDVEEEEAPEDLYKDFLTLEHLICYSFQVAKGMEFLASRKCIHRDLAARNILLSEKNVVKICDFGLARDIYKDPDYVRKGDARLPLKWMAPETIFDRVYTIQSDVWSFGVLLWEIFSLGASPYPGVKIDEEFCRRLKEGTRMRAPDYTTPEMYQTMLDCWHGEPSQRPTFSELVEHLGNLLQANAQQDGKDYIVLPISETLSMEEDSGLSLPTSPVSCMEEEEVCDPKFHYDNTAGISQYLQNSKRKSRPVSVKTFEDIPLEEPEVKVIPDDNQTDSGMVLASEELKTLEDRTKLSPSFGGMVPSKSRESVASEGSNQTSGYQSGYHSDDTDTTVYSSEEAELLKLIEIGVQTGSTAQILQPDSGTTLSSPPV

Results are given in words; binding and its absence hold for the method and conditions named. Binding seen in cells or lysates may run through a third protein.

In paper PMC13440619 one finds binding data, which are given here for 1 substance.

For “vascular endothelial growth factor receptor 2 (VEGFR2) (from UniProt P35968 20-1356)”, the binding entry was “no binding”.
